Numbering of substitutions follows the chain as printed. No constants are given. Whether binding was seen depends on the method and setting. Some results given as binding are weak or reduced against the parent protein; the word gives no strength. Values belong to the binder of their own block, whether it stands above or below them.
Experiments:
[1] = molecular target: recombinant human ROR2-Ig (human) (UniProt Q01974); test: flow cytometry, CAR-transfected Jurkat cells, 1 µg/ml ROR2-Ig
human ROR2 (human) = human ROR2 (human) (UniProt Q01974); test: ELISA, scFv clones

The chains behind the UniProt entries cited, without tags or fusion partners. Where a name states a change or a piece, a line headed by the entry shows the natural chain unless it says otherwise.
UniProt Q01974: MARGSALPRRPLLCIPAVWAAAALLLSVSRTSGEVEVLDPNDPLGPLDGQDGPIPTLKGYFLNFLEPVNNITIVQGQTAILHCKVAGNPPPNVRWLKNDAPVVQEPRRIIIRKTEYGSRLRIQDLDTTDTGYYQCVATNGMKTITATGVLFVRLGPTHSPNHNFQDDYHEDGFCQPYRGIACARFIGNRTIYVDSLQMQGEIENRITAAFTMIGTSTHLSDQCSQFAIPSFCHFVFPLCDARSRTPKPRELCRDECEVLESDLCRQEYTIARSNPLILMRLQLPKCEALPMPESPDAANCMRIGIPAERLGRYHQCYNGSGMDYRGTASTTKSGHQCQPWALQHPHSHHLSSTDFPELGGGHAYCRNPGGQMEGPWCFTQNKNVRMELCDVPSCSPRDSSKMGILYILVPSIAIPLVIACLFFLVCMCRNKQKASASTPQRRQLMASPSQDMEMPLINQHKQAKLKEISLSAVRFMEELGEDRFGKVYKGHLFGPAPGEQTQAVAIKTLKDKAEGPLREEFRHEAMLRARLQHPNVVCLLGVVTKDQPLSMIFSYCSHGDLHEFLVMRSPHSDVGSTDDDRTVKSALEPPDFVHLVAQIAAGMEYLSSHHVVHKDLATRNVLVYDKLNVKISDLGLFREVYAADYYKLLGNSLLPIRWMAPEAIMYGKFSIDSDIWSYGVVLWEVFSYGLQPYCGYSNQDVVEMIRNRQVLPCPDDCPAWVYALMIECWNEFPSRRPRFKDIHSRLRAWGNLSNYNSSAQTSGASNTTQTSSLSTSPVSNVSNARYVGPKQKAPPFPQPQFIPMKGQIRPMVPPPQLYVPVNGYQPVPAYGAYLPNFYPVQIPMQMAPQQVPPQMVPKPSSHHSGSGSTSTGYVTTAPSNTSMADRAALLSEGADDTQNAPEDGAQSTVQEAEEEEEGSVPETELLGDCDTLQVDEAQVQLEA

B1: h6E6-116 anti-human ROR2 chimeric antigen receptor (protein, not shown: small tags and cut ends)
chain: EVQLVESGGGLVKPGGSLRLSCAASGFTFSTYGVSWVRQAPGKGLEWVSTISSGGGYTHYAGSVKGRFTISRDNAKNSLYLQMNSLRAEDTAVYYCARHPRDFSYALDYWGQGTTVTVSSEIVMTQSPATLSVSPGERATLSCRASQDVGHYLAWYQQKPGQAPRLLIYWASTRATGIPARFSGSGSGTEFTLTISSLQSEDFAVYYCQQYNIYPWTFGQGTKVEIK
binding [1]: binds

B2: h6E6-117 scFv clone (scFv, V domains shown)
VH: EVQLVESGGGLVKPGGSLRLSCAASGFTFSVYGISWVRQAPGKGLEWVSTISSGGGYTHYAPSVKGRFTISRDNAKNSLYLQMNSLRAEDTAVYYCARHPRDFSYAMDYWGQGTTVTVSS
VL: EIVMTQSPATLSVSPGERATLSCKASQDVGHYVAWYQQKPGQAPRLLIYWASTRATGIPARFSGSGSGTEFTLTISSLQSEDFAVYYCQQYNIYPWTFGQGTKVEIK
binding (human ROR2 (human)): binds

The next lines start with the values.

binding (human ROR2 (human)): binds
B3: h6E6-118 scFv clone (scFv, V domains shown)
VH: B2 VH with V31R, I34H, H59Y, P62E, M107H
VL: B2 VL with K24R, A55H

binding (human ROR2 (human)): binds
B4: h6E6-119 scFv clone (scFv, V domains shown)
VH: B2 VH with V31A, I34T, A61V, P62H
VL: B2 VL with A55H

binding (human ROR2 (human)): binds
B5: h6E6-120 scFv clone (scFv, V domains shown)
VH: B2 VH with V31S, I34M, A61V, P62Q
VL: B2 VL with V33L

— patent US20260209348A1
